The target of test [1] is T1, mPDPN-Fc, recombinant Fc fusion of the mouse Podoplanin extracellular domain (mouse) (UniProt Q62011).
T1 sequence (chain, in the bilayer experiments, monobiotinylated; Alexa 488 or Dylight 594 label): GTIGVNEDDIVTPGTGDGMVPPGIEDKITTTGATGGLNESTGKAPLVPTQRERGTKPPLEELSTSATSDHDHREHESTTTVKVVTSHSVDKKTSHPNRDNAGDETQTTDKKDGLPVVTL
Nature of the test: platelet adhesion assay; glass-supported planar lipid bilayers with monobiotinylated mPDPN-Fc tethered via streptavidin to biotinylated lipids (mobile); washed mouse platelets 45 min at 37 °C; DIC microscopy; CLEC-2-deficient platelets as control; only the target purified.

For test [2], the target named is T1, mPDPN-Fc, recombinant Fc fusion of the mouse Podoplanin extracellular domain (mouse). The test can be described thus: platelet adhesion assay; static; mPDPN-Fc (10 μg/ml) coated on glass coverslips, blocked with denatured BSA; washed mouse platelets (2 x 10^7/ml) 45 min at 37 °C; DIC microscopy; CLEC-2-deficient platelets, BSA and a control Fc protein as controls; only the target purified.

These are yes or no findings as the source states them, for the method shown. Some entries that bind do so weakly or less than the wild type. Tags and fused reporters may be left off the sequences shown.

B1: C-type lectin receptor 2 (CLEC-2), mouse, on platelets (receptor, UniProt Q9JL99 1-229)
chain: MQDEDGYITLNIKPRKQALSSAEPASSWWRVMALVLLISSMGLVVGLVALGIMSVTQQKYLLAEKENLSATLQQLAKKFCQELIRQSEIKTKSTFEHKCSPCATKWRYHGDSCYGFFRRNLTWEESKQYCTEQNATLVKTASQSTLDYIAERITSVRWIGLSRQNSKKDWMWEDSSVLRKNGINLSGNTEENMNCAYLHNGKIHPASCKERHYLICERNAGMTRVDQLL
Regarding B1, the binding entry in test [1] and in test [2] was “binds” each time.
